# Measured values as given in the supplement of paper PMC5770031.
# Where a name gives a salt, the structure may show the parent alone. Some of the results follow. This data set is noisy: repeats of one test often differ as much as different tests do.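 ATM8/balancer (normal ATM) heterozygous flies were crossed on treated food; parents laid eggs 5–6 days, offspring developed ~12 days, so parents and larvae ingested compound. Readout: fraction of emerged adults homozygous for ATM8 versus 2% DMSO controls. Compounds were neutral at 10–20% homozygotes, harmful below 10%, helpful above 20%.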 Numbered stars: 1 amine (or outer) side, 2 acyl side, 3 side chain; on linkers, the order of the positions; unused ones are H or OH. Square brackets hold non-standard residues; d marks the D form. Peptide text beside a SMILES is read from it. * marks the point of attachment. ξ: configuration not given here. X3 = O=C([C@H](N[*:1])C1CCC(O)CC1)[*:2]; X5 = O=C(C(N[*:1])C1CCC(O)C(Cl)C1)[*:2]; X4 = O=C(C(N[*:1])C1CCC(O)CC1)[*:2]; aThr = C[C@H](O)[C@H](N)C(=O)O; dOrn = NCCC[C@@H](N)C(=O)O; X2 = CCC/C=C\C=C/C(=O)*; ξN = NC(=O)CC(N)C(=O)O
# Test system: Drosophila melanogaster ATM8 (temperature-sensitive ATM allele)
# Experiment: fraction of eclosed F1 progeny that are homozygous ATM8 (rescue of developmental lethality); higher = more rescue of ATM8 developmental lethality; extreme values may be limits of the assay
# Conditions: compound concentration applied to food 0.2 mM; 21 °C
row,Structure (SMILES),fraction of eclosed F1 progeny that are homozygous ATM8
1,C1CCC(C(CC2CCCCN2)C2CCCCC2)CC1 (centres undefined),0.0256
2,CC(C)c1c(O)c(-c2cc3c(c(C(C)C)c2O)CCC2C(C)(C)CCC[C@]32C)cc2c1CCC1C(C)(C)CCC[C@]21C (some centres undefined),0.176
3,CCC/C=C\C=C/C(=O)N[C@@H](CC(N)=O)C(=O)NC(CC(N)=O)C(=O)N[C@@H](C(=O)N[C@H](CCCN)C(=O)N[C@@H](C(=O)N[C@@H](C(=O)N[C@@H](C(=O)N[C@H](C(=O)N[C@@H](Cc1ccccc1)C(=O)N[C@H](CCCN)C(=O)NC(C(=O)N[C@H](C(=O)NC(C(=O)NCC(=O)N[C@@H](CC(C)C)C(=O)N[C@H](C)C(=O)NC(C(=O)O)C1CCC(O)C(Cl)C1)C1CCC(O)CC1)[C@H](C)O)C1CCC(O)CC1)[C@H](C)O)C1CCC(O)CC1)C1CCC(O)CC1)[C@H](C)O)C1CCC(O)CC1 (some centres undefined) [RAMOPLANIN [A2 shown; 2mM]] (X2-N[ξN][X3][dOrn][dT][X3][X3][aThr]F[dOrn][X4][aThr][X4]GL[dA][X5]-OH),0.0571
4,CCc1nc(N)nc(N)c1-c1ccc(Cl)cc1,0.2
5,CC(=O)[C@@]1(O)CC[C@H]2[C@@H]3C[C@H](C)C4=CC(=O)C=C[C@]4(C)[C@@]3(F)[C@@H](O)C[C@@]21C,0
6,O=C(O)c1cn(C2CC2)c2cc(N3CCNCC3)c(F)cc2c1=O,0.1
7,O=C1C=C2C=C[C@@H]3C[C@@]2(O1)[C@H]1CCCCN31,0.2
8,CCOc1nc2cccc(C(=O)OCc3oc(=O)oc3C)c2n1Cc1ccc(-c2ccccc2-c2noc(=O)[nH]2)cc1,0.364
9,C#CCN[C@@H]1CCc2ccccc21,0.111
10,Cn1c(=O)[nH]c2ncn(C)c2c1=O,0.275
11,COc1ccc2c(c1)OCC(Cc1ccc(OC)c(O)c1)C2=O (centres undefined),0.175
12,COc1cc(O)cc(O)c1C(=O)c1ccccc1,0.0976
13,CN1CCC[C@@H]1Cc1c[nH]c2ccc(CCS(=O)(=O)c3ccccc3)cc12,0.329
14,CC(C)[N+](C)(CCOC(=O)C1c2ccccc2Oc2ccccc21)C(C)C,0.184
15,CN(C)CCC=C1c2ccccc2COc2ccccc21,0.0667
16,Nc1ccccc1S(N)(=O)=O,0.0926
17,O=Cc1ccccc1O[C@@H]1O[C@H](CO)[C@@H](O)[C@H](O)[C@H]1O,0.0455
18,OCc1cccnc1,0.128
19,NNCc1ccccc1,0.0385
20,CC(C)=CC1C(C(=O)OCc2cccc(Oc3ccccc3)c2)C1(C)C (centres undefined),0.278
21,CC1=CC(=O)C(C(C)C)=CC1=O,0.257
22,CCOc1ccc2ccccc2c1C(=O)N[C@@H]1C(=O)N2[C@@H]1SC(C)(C)[C@@H]2C(=O)O,0.143
23,NC(=O)C[S@@+]([O-])C(c1ccccc1)c1ccccc1,0.214
24,COc1ccc(-c2oc3cc(OC)c(OC)c(OC)c3c(=O)c2OC)cc1,0.156

# As entered above.
# Entry for COc1cc(O)cc(O)c1C(=O)c1ccccc1 under fraction of eclosed F1 progeny that are homozygous ATM8: 0.0976
# Entry for O=C(O)c1cn(C2CC2)c2cc(N3CCNCC3)c(F)cc2c1=O under fraction of eclosed F1 progeny that are homozygous ATM8: 0.1
# Entry for NNCc1ccccc1 under fraction of eclosed F1 progeny that are homozygous ATM8: 0.0385
# Entry for CCC/C=C\C=C/C(=O)N[C@@H](CC(N)=O)C(=O)NC(CC(N)=O)C(=O)N[C@@H](C(=O)N[C@H](CCCN)C(=O)N[C@@H](C(=O)N[C@@H](C(=O)N[C@@H](C(=O)N[C@H](C(=O)N[C@@H](Cc1ccccc1)C(=O)N[C@H](CCCN)C(=O)NC(C(=O)N[C@H](C(=O)NC(C(=O)NCC(=O)N[C@@H](CC(C)C)C(=O)N[C@H](C)C(=O)NC(C(=O)O)C1CCC(O)C(Cl)C1)C1CCC(O)CC1)[C@H](C)O)C1CCC(O)CC1)[C@H](C)O)C1CCC(O)CC1)C1CCC(O)CC1)[C@H](C)O)C1CCC(O)CC1 (some centres undefined) [RAMOPLANIN [A2 shown; 2mM]] (X2-N[ξN][X3][dOrn][dT][X3][X3][aThr]F[dOrn][X4][aThr][X4]GL[dA][X5]-OH) under fraction of eclosed F1 progeny that are homozygous ATM8: 0.0571

# (next part)

row,Structure (SMILES),fraction of eclosed F1 progeny that are homozygous ATM8
1,NCCCNCCCCNCCCN,0.154
2,CC1=NN(c2ccccc2)C(=O)C1,0.0571
3,Cn1cnc2c1c(=O)[nH]c(=O)n2C,0.191
4,CCC[C@@H]1C[C@@H](C(=O)N[C@@H]([C@H]2O[C@H](SC)[C@H](O)[C@@H](O)[C@H]2O)[C@H](C)Cl)N(C)C1,0.069
5,O=C(O)CCNC(=O)c1ccccc1,0.167
6,COc1ccc(-c2coc3cc(OC)ccc3c2=O)cc1,0.0761
7,CC1(C)C(=O)C=C[C@]2(C)[C@H]3CC[C@@]4(C)[C@H](c5ccoc5)OC(=O)[C@H]5O[C@]54[C@]3(C)[C@H](O)C[C@@H]12,0.188
8,C[n+]1c2cc(N)ccc2cc2ccc(N)cc21,0.13
9,CC1(C)O[C@H]2CC(=O)OC[C@]23[C@H]2CC[C@@]4(C)[C@H](c5ccoc5)OC(=O)[C@H]5O[C@]54[C@]2(C)C(=O)C[C@@H]13,0.19
10,CN[C@@H]1[C@@H](O[C@H]2O[C@H](CO)[C@@H](N)[C@H](O)[C@H]2O)OC2C[C@@H](N)[C@@H](O[C@H]3[C@H](O)[C@@H](O)[C@H](N)C[C@@H]3N)OC2[C@@H]1O (some centres undefined),0.278
11,CC12CCC(CC1=O)C2(C)C (centres undefined),0.162
12,CC(=O)Oc1cc(OC(C)=O)c2c(c1)O[C@H](c1ccc(OC(C)=O)c(OC(C)=O)c1)[C@@H](OC(C)=O)C2,0.421
13,COc1ccc(O)cc1,0.0714
14,CC(=O)NC(Cc1ccccc1)C(=O)O (centres undefined),0.232
15,CCCCCCCCCCCCCCCCCCCCCCO,0.0222
16,NCCCC(=O)O [gamma-AMINOBUTYRIC ACID HYDROCHLORIDE],0.289
17,CCCCCCOC(=O)NC(=N)c1ccc(NCc2nc3cc(C(=O)N(CCC(=O)OCC)c4ccccn4)ccc3n2C)cc1,0.23
18,CN[C@@H]1[C@H](O)[C@H](NC)[C@H]2O[C@@]3(O)C(=O)C[C@@H](C)O[C@H]3O[C@@H]2[C@H]1O,0.111
19,CC(C)=CCC[C@@H](C)CC=O,0.158
20,CN[C@H](CC(=O)O)C(=O)O,0.245
21,Cc1onc(-c2ccccc2Cl)c1C(=O)N[C@@H]1C(=O)N2[C@@H]1SC(C)(C)[C@@H]2C(=O)O,0.0588
22,CN(C)CCOC(c1ccccc1)c1ccccc1,0.0577
23,COc1ccc2[nH]c([S+]([O-])Cc3ncc(C)c(OC)c3C)nc2n1 (centres undefined),0.0811
24,CC(=O)[C@H]1CC[C@H]2[C@@H]3CCC4=CC(=O)CC[C@]4(C)[C@H]3CC[C@]12C,0.107

# Three structures already listed, sorted by length of the SMILES, ascending.
row,Structure (SMILES),fraction of eclosed F1 progeny that are homozygous ATM8
11,CC12CCC(CC1=O)C2(C)C (centres undefined),0.162
3,Cn1cnc2c1c(=O)[nH]c(=O)n2C,0.191
6,COc1ccc(-c2coc3cc(OC)ccc3c2=O)cc1,0.0761

# The results go on:

row,Structure (SMILES),fraction of eclosed F1 progeny that are homozygous ATM8
1,CN(C)CC/C=C1/c2ccccc2Sc2ccc(Cl)cc21,0.0917
2,CC(=O)O[C@H]1C[C@@H](OC(C)=O)C(C)(C)[C@@H]2C[C@@H](OC(C)=O)[C@]3(C)[C@H](CC[C@@]4(C)[C@H](c5ccoc5)OC(=O)[C@H]5O[C@@]534)[C@@]12C,0.14
3,CC[C@@]1(O)C(=O)OCc2c1cc1n(c2=O)Cc2cc3ccccc3nc2-1,0.162
4,CCN(CC)C(=O)c1cccnc1,0.118
5,CCN(CC)C(=O)c1cccc(C)c1,0.0806
6,CCCN(CCC)S(=O)(=O)c1ccc(C(=O)O)cc1,0.279
7,O=C1C[C@@H]2OCC=C3CN4CC[C@]56c7ccccc7N1[C@H]5[C@H]2[C@H]3C[C@H]46,0.0345
8,CN(C)CCN(Cc1ccccc1)c1ccccn1,0.179
9,C=CC1=C(C)c2cc3[nH]c(cc4nc(cc5[nH]c(cc1n2)c(C)c5CCC(=O)O)C(CCC(=O)O)=C4C)c(C)c3C=C,0.19
10,C=C(C)CCCC(C)CCOC(C)=O (centres undefined),0.151
11,CC(O)C(=O)O.N (centres undefined),0.133
12,CN1C(=O)CC(c2ccccc2)C1=O (centres undefined),0.0263
13,CC(=O)O[C@@]12CO[C@@H]1C[C@H](O)[C@@]1(C)C(=O)[C@H](O)C3=C(C)[C@@H](OC(=O)[C@H](O)[C@@H](NC(=O)OC(C)(C)C)c4ccccc4)C[C@@](O)([C@@H](OC(=O)c4ccccc4)[C@H]21)C3(C)C,0.129
14,Clc1ccc(CSC(Cn2ccnc2)c2ccc(Cl)cc2Cl)cc1 (centres undefined),0.188
15,Nc1ncnc2c1ncn2[C@@H]1O[C@H](CO)[C@@H](O)[C@H]1O,0
16,COc1ccc2c(c1)OCC(Cc1ccc(O)c(OC)c1)C2=O (centres undefined),0.107
17,C[n+]1cc2c3c(ccc2c2ccc4cc5c(cc4c21)OCO5)OCO3,0.235
18,COc1cc(O)c(C(C)=O)c(O)c1,0.121
19,Cc1cc(=O)oc2cc(O)c(O)cc12,0.157
20,NCCc1cc(O)c(O)cc1O,0.259
21,N[C@@H](Cc1cc(I)c(Oc2cc(I)c(O)c(I)c2)c(I)c1)C(=O)O,0.0435
22,CC(C)=CCC[C@]1(C)C=Cc2c(O)c3c(c(CC=C(C)C)c2O1)O[C@]12C(=C[C@@H]4C[C@H]1C(C)(C)O[C@@]2(C/C=C(/C)C(=O)O)C4=O)C3=O,0.2
23,N=C(N)NC(=O)Cc1c(Cl)cccc1Cl,0
24,COc1cc(O)c(C(=O)c2ccccc2)cc1S(=O)(=O)O,0.0312

row,Structure (SMILES),fraction of eclosed F1 progeny that are homozygous ATM8
1,CNCc1ccccc1,0.0577
2,O=C(O)CCCCCCCCCCCC[C@@H]1C=CCC1,0.257
3,COc1cc(OC)c2c(=O)c(O)c(-c3ccc(OC)c(OC)c3)oc2c1,0.128
4,C=C(C)c1cc2cc(C(C)=O)c(O)cc2o1,0.0508
5,CO[C@H]1[C@@H](O)[C@@H](C)O[C@@H](O[C@H]2CC[C@]3(C)[C@H]4CC[C@]5(C)[C@@H](C6=CC(=O)OC6)CC[C@]5(O)[C@@H]4CC[C@]3(O)C2)[C@@H]1O,0.143
6,CCCCCCCCCCCCCCCC(=O)OC[C@@H](NC(=O)C(Cl)Cl)[C@H](O)c1ccc([N+](=O)[O-])cc1,0.0357
7,O=C(O)/C=C/c1ccc(O)c(O)c1,0.118
8,Clc1ccc(Cn2c(CN3CCCC3)nc3ccccc32)cc1,0.179
9,COc1cc2nc(N(C)CCCNC(=O)C3CCCO3)nc(N)c2cc1OC (centres undefined),0.0714
10,C[N+](C)(C)CCCCCCCCCC[N+](C)(C)C,0.174
11,c1ccc2nc(N3CCNCC3)ccc2c1,0
12,C[N+]1(C)[C@@H]2CC[C@H]1C[C@@H](OC(=O)C(CO)c1ccccc1)C2 (some centres undefined),0
13,O=C1c2ccccc2C(=O)C1c1ccc(Cl)cc1,0.273
14,C#C[C@]1(OC(C)=O)CC[C@H]2[C@@H]3CCC4=CC(=NO)CC[C@@H]4[C@H]3CC[C@@]21CC (mixture of isomers),0.0682
15,Clc1ccc(CO/N=C(\Cn2ccnc2)c2ccc(Cl)cc2Cl)c(Cl)c1,0.0294
16,CC(=O)O[C@]1(C(C)=O)CC[C@H]2[C@@H]3C=C(Cl)C4=CC(=O)[C@@H]5C[C@@H]5[C@]4(C)[C@H]3CC[C@@]21C,0.158
17,N[C@@H]1CONC1=O,0
18,O=C(O)COCCN1CCN(C(c2ccccc2)c2ccc(Cl)cc2)CC1 (centres undefined),0.0435
19,CCCCC(CC)CCC(CC(C)C)OS(=O)(=O)O (centres undefined),0.2
20,CN1C[C@H](C(=O)N[C@]2(C)O[C@@]3(O)[C@@H]4CCCN4C(=O)[C@H](Cc4ccccc4)N3C2=O)C[C@@H]2c3cccc4[nH]cc(c34)C[C@H]21,0.0435
21,CCc1c(C)[nH]c2c1C(=O)C(CN1CCOCC1)CC2 (centres undefined),0.222
22,CC(=O)OC1CN2CCC1CC2 (centres undefined),0.192
